Assay results as given in paper PMC8144572.
Results are given in words; binding and its absence hold for the method and conditions named. Some binding calls cover weakened binding; strength is not graded here.

Sequences of proteins named here, by UniProt entry; tags and fusion partners are left off.
UniProt P42259: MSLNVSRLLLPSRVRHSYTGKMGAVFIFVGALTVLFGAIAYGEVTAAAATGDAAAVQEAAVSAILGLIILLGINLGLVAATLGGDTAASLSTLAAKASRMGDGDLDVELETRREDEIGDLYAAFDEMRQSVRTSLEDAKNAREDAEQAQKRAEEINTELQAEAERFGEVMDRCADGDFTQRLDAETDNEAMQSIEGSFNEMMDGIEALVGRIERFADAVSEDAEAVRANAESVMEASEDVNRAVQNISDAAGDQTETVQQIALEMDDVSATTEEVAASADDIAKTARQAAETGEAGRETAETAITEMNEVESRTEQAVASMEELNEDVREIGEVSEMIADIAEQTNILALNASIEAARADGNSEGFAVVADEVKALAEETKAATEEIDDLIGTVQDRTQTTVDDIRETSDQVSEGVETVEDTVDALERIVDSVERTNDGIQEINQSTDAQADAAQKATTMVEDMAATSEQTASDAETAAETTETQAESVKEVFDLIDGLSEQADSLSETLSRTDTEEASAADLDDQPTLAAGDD

Molecular target: full-length transducer NpHtrII from Natronomonas pharaonis (Natronomonas pharaonis) (UniProt P42259)
Assay: co-purification (Ni-NTA, then SEC); NpSRII co-expressed with NpHtrII or NpHtrII137 in E. coli; pellet solubilised in 1% DDM; purified via Ni-NTA (6xHis on the transducer) and Superose 6 size-exclusion chromatography; SDS-PAGE of the purified complex

- binding: binds
B1: sensory rhodopsin II from Natronomonas pharaonis (NpSRII) (protein, UniProt P42196 1-239)
chain: MVGLTTLFWLGAIGMLVGTLAFAWAGRDAGSGERRYYVTLVGISGIAAVAYVVMALGVGWVPVAERTVFAPRYIDWILTTPLIVYFLGLLAGLDSREFGIVITLNTVVMLAGFAGAMVPGIERYALFGMGAVAFLGLVYYLVGPMTESASQRSSGIKSLYVRLRNLTVILWAIYPFIWLLGPPGVALLTPTVDVALIVYLDLVTKVGFGFIALDAAATLRAEHGESLAGVDTDAPAVAD
